System: adrenaline-induced local sweating
Test: OPT-test of sweat response after intradermal adrenaline, epidermal application of local anesthetic emulsions on the forearm
Assay type: in vivo, volunteers
Conditions: total concentration of 10%, aqueous emulsion
Experimental: The anti perspiration effect of the present invention was determined in an experimental investigation of dermal analgesia and influence upon adrenaline-induced local sweating by epidermal application of different local anesthetic formulations.
12 healthy medical students took part in the study.
Pre-formed pads, consisting of cellulose fibres, 2 times 2 centimetres, were soaked by a standardized procedure in either an emulsion containing 5% lidocaine base + 5% prilocaine base, an emulsifying agent and water, 10% lidocaine base in the same vehicle, 10% prilocaine base in the same vehicle, or a placebo emulsion containing the emulsifying agent and water only. On one forearm of the volunteer the four different emulsions were applied under occlusive dressings consisting of an impervious tape, while on the other arm the four emulsions were applied under a non-occlusive dressing, using surgical tape (3M). A certain distance between the application areas was chosen in order to avoid any risk of interference between them. […]
Just under the apex of each test area triangle an intradermal wheal 0.1 ml adrenaline 1:10 000 was injected. […] The number of black-coloured sweat pores within the standardized diameter hole in the plastic rings was counted under a direct vision microscope.

CCN(CC)CC(=O)Nc1c(C)cccc1C [L, Diethylaminoacet-2',6'-xylidide]
sweat response inhibition, compared among the tested formulations: less effective

From EP0002426B1, “Antiperspirant” (priority 1977, dated 1979)
